Hit rate of the full screen: of about 53,000 sequences, about 3,700 (7%) were called active.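 Rule for the calls: active = gene knockdowns whose robust z-score for IL-1 alpha signal is at least 2 or at most -2, so actives lie on both sides; inactive = the rest.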 The list shows a part of the results.

The assay in a line: Components of the Cytosolic LPS Sensing Pathway: Gene Identification via Genome-wide siRNA Screen.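 Note: robust z of the log signal after scaling to non-targeting control siRNA wells of the plate.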 The settings on record: RAW264.7 macrophages, IL-1a HTRF, actives lie on both sides, screened at 100 nM (by protocol), cells primed 5 h with Pam3CSK4 first. In short, it runs like this: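 Cells (RAW264.7, 1×10^4 per well) were transfected with siRNA at 100 nM and cultured 48h at 37 degrees C. Pam3CSK4 was added for 5 hours; LipidA transfection followed for 24 hour. IL-1a was then measured by HTRF.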
On the technique in general: In TR-FRET formats the signal depends on donor and acceptor labels being close together.
CUUCGUAGCAGUCAUCCUUTT against Bcl2: the z-score was inactive: 0.545. Regarding CCUCAGAUUGCCAAAAGUUTT against Tnip1, the z-score was inactive: -1.05.

For the sequence GGUCCAAGUAAUGAACUCATT against Olfr155, the z-score is inactive: -1.19. The same measure for GGCACAGCUGGAUGAAGAATT against Gucy1b1: inactive: -0.557; for GGGUGAUAUGGACUAUAGGTT against Cd1d2: inactive: 0.0215. CCUCUAAAGUCCUCAAUAGTT against Myoz2: the z-score was inactive: 0.377.

Consider GCUAUCAUGAAGCUAAAUGTT against Igf2bp1, for which the z-score was inactive: 0.267. With GCUAAUUCCAAGAAAGAAGTT against Lifr the figure was inactive: -0.326. The same measure for GAGCGAACAUGUGUUUUACTT against H4c8: inactive: 0.56; for GGCGGCUCCUUUCAACUUCTT against Cfb: inactive: 0.774; for CGGGUCCAUUAACAAAGCUTT against Bmp1: inactive: -1.62. The same measure for GGAUCCAGGAGUAUGAGAATT against Atp5h: inactive: 0.585. With GGGCUACGGACAUUUCAUUTT against Pcare, the z-score was inactive: 0.294. With GGCUGCAUUUUAAAACCGUTT against Prdm1 the figure was inactive: 0.358; with CCUUUUUGAGGAAUUUGGATT against Scaf8, inactive: -0.0964; with GGAGAAGAUGAAGUUGAAGTT against Nudt21, inactive: -1.52. Consider GCAACGGAGACUUCAGUAATT against Zbtb39, for which the z-score was inactive: 0.569. For the sequence CCACCACAGCACCGGAUAATT against Mrgprb3, the z-score was inactive: 0.278. The same measure for GGAUUCAACAGAUUUAGUGTT against Clcn1: inactive: 1.79; for GGCUUCAUUAUCUGUUCUGTT against Olfr1442: inactive: -0.205; for GGUAGAAAACAUAAAUGGUTT against Sec16a: inactive: 1.71.

GGAGCUUCUUAAUAACUUUTT against Xpo6: the z-score was inactive: -0.132. With GGUAAACAGAAUAGAAUCCTT against Lcmt1 the figure was inactive: 0.622; with CCCAAAGAGAAAUUUCUAGTT against Meltf, inactive: 0.801.

Consider GGCUCUGAACAGCAUUGACTT against Mdfi, for which the z-score is inactive: -0.521.

For the sequence CCUCUAUGACUGGUACAGGTT against Ttyh3, the z-score is inactive: -1.2. With GGACGACAAAUAGAAUUCUTT against Odf1 the figure was inactive: 1.57; with GGGAUUGCUAUGUGCUUAGTT against As3mt, inactive: -0.265; with GGAAAAGUUUGAAACCAAATT against Pmpca, inactive: 0.126. The same measure for GGAAGAAGAACUGAAGACATT against Ctnnbl1: active: 2.22. Turning to GGAAUACAAAGAUAGCUUCTT against Atrn, the z-score was inactive: 0.786.

Consider GGCUGACGAAUGACAGUUGTT against Katnal2, for which the z-score was inactive: 0.68. With GGCAGAAGUCCAACUUCUUTT against Pirt the figure was inactive: -0.363.

CCCAAUUCGAUUUCUGCCGTT against Rnf11: the z-score was inactive: -0.77. The same measure for GCAAAUAAUGACGUGGCUATT against Rmi1: inactive: 0.101; for GGAGUAUGAGAUGCAGUGUTT against Nat9: inactive: -0.207; for GCAGCAAGCUGAAAAAGAGTT against Cstl1: inactive: 0.237.

Turning to GCUACUUCAUUCCCGUGGCTT against Slc29a1, the z-score was inactive: 0.523. The same measure for CGUGAUUUCAUGCUGUGGCTT against Tal2: active: -2.19; for GACACCAAAGUCUUUGAGUTT against Olfr315: inactive: -0.989; for CCACUUUCAACCUGACCGUTT against Pcdhac2: inactive: 0.345.

As to GCUGAUGUUAUUUAACAUGTT against Tas2r124, the z-score is inactive: 1.33. Turning to GGUACUAUGAAGACUUAGATT against Nup214, the z-score is inactive: -1.33. With “GGCAAUAGAAUCAAGAUUUTT against C130021I20Rik” the figure was inactive: -0.172; with GGUUGUGCAAGAGUAUGAATT against Nphs2, inactive: 0.316.

Regarding GCCCUUACCUUGUAAGUUCTT against Sln, the z-score is inactive: 0.0766. As for GGCUAUGAGUCGACUGAUUTT against Scin, the z-score was inactive: 1.12. With GGAUGCUGACAACAUAUACTT against Plk3 the figure was inactive: -0.726; with GGAGGGAACAUGUGGAAGUTT against Ndufaf7, inactive: 0.0902; with GCGCAGAUAUCCUGGUUUGTT against Dhx36, active: 2.28. On to CGCGUGCAUUAAUGCCUCUTT against Abhd16b, for which the z-score is inactive: 0.46. The same measure for GGGAACCUUGAAAUCAAUATT against Gpr75: inactive: -0.192. The same measure for CCUGGAUUUCCGGGAGUACTT against Col4a1: inactive: 0.83. The same measure for GCAUGUCUCAACUAAGGACTT against Upk3b: inactive: 1.03; for CGGCUUACGCAUGUCUAUGTT against Polr2a: active: -2.01; for GCUCAGUCAUGUGACCGCATT against Fbxl18: active: 2.93. As for GGACAUCUCUACAAAUUACTT against Hsp90b1, the z-score was inactive: -0.81. On to GGCCAUCGAAACUUUCUCGTT against Igf2bp1, for which the z-score was inactive: -0.192. As for GCAGCUGGAUGCUACUAACTT against Klhl30, the z-score is inactive: 0.953. With GGGUCUUGGAUAUGUGGUUTT against Olfr1337, the z-score is inactive: -0.311. As for CCGUCAUCUACACCUAUUUTT against Olfr525, the z-score was inactive: 0.102. As for GGAUUGUCCUUGAUGGCUGTT against Plek2, the z-score was inactive: -0.116. The same measure for GGAUACUAGCAGUUGUUCGTT against Arhgap39: inactive: 0.217; for GCAAGAUUCUUGAAAAGGATT against Maneal: inactive: 1.06. The same measure for CCAUCAUCGCUCUGUCACATT against Olfr1391: inactive: -0.448; for GCGACAAUUAAGUAUACUUTT against Gria2: inactive: 1.23; for GGCAACGAGAGUCCAUUUCTT against Slc28a1: inactive: 0.886. With GGUACAAGUUAAGGUCUACTT against Vmn1r236 the figure was inactive: 0.572.

These data come from PubChem BioAssay AID1508600 (Functional Genomics Laboratory (NCATS/FGL), 2020).
